Test results: article PMC7845594, “Novel Immune Modulators Enhance Caenorhabditis elegans Resistance to Multiple Pathogens” (mSphere, 2021)
The source gives many values for each of these; only a part stands here.

Test system: C. elegans transcriptome
Assay: Transcriptome profiling (Affymetrix microarrays), differentially expressed genes
Format: in vivo, Caenorhabditis elegans
Conditions: downregulated genes
Protocol: To gain additional insight into the effect of LK molecules on C. elegans, young-adult, wild-type worms were treated with each drug at 100 µM for 8 h in the absence of pathogen. RNA was collected, and transcriptome profiling was performed.
Data were determined using Affymetrix microarrays, as described in Materials and Methods. Download Table S3, XLSX file, 0.07 MB.
Transcriptome profiling was performed on ∼6,000 wild-type, young adult worms incubated with either LK molecules or DMSO for 8 h. RNA isolation was performed using TRIzol extraction, followed by cleanup using RNeasy columns according to the manufacturer’s protocol. Each condition was analyzed in triplicate. Microarray data have been deposited in the GEO database, accession number GSE137516. […] Clustering and generation of the heat map was performed using Cluster 3.0 ([98]) and Treeview ([99]), respectively. Fold change of genes were normalized to average fold change of that gene over all clustered conditions. Genes and conditions were clustered using Euclidean distance and average linkages. […] Microarray data for non-LK molecules were collected from GEO omnibus. WormEXP was used as a secondary method for confirming statistical significance of potential pathways stimulated by each of the LK molecules ([100]). Gene ontologies were generated using DAVID ([101], [102]).

CN(C)/N=N/c1ccc(-c2cn(Cc3ccccc3)cn2)cc1 [LK38]
Fold Change (Affy_ID 171811_s_at, listed under genes K01D12.7 (LK34, LK38), C57047 (LK35), K01D12.15 (LK38)): 0.3018
Fold Change (Affy_ID 192118_s_at, listed under gene F10C1.7 (LK34, LK35) or F10C1.8 (LK38)): 0.3484
Fold Change (Affy_ID 194255_x_at, listed under gene F22A3.6 (LK34, LK35) or C68743 (LK38)): 0.483
Fold Change (Gene B0035.13, Affy_ID 188123_at): 0.2972
Fold Change (Gene B0218.1, Affy_ID 188358_at): 0.1938
Fold Change (Gene B0228.7, Affy_ID 187261_s_at): 0.491
Fold Change (Gene B0379.1, Affy_ID 179086_s_at): 0.3504
Fold Change (Gene B0507.8, Affy_ID 180569_at): 0.339
Fold Change (Gene C04G2.4, Affy_ID 172853_x_at): 0.2605
Fold Change (Gene C05C10.4, Affy_ID 189921_at): 0.1668
Fold Change (Gene C14C6.2, Affy_ID 183567_s_at): 0.2228
Fold Change (Gene C17B7.2, Affy_ID 181325_s_at): 0.3145
Fold Change (Gene C24D10.7, Affy_ID 172569_x_at): 0.172
Fold Change (Gene C24D10.8, Affy_ID 172527_x_at): 0.2487
Fold Change (Gene C27F2.4, Affy_ID 189651_s_at): 0.4446
Fold Change (Gene C27H5.4, Affy_ID 181334_s_at): 0.423
Fold Change (Gene C29F4.2, Affy_ID 190884_at): 0.3468
Fold Change (Gene C33F10.9, Affy_ID 172834_x_at): 0.2643
Fold Change (Gene C34F11.4, Affy_ID 172885_x_at): 0.2545
Fold Change (Gene C34F11.6, Affy_ID 172896_x_at): 0.2433
Fold Change (Gene C35D10.11, Affy_ID 172630_x_at): 0.1527
Fold Change (Gene CTEL54X.1, Affy_ID 185910_at): 0.3164
Fold Change (Gene D1086.2, Affy_ID 177478_at): 0.2424
Fold Change (Gene D2089.3, Affy_ID 178891_at): 0.4379
Fold Change (Gene F07A11.5, Affy_ID 188623_at): 0.4158
Fold Change (Gene F08G2.1, Affy_ID 192280_s_at): 0.3636
Fold Change (Gene F08G2.2, Affy_ID 172835_x_at): 0.4439
Fold Change (Gene F08G2.3, Affy_ID 172899_x_at): 0.43
Fold Change (Gene F08H9.8, Affy_ID 189993_at): 0.3038
Fold Change (Gene F09C12.7, Affy_ID 172687_x_at): 0.2661
Fold Change (Gene F11E6.3, Affy_ID 179439_s_at): 0.3909
Fold Change (Gene F11G11.8, Affy_ID 172546_x_at): 0.3982
Fold Change (Gene F13B6.3, Affy_ID 180766_at): 0.1106
Fold Change (Gene F17C11.2, Affy_ID 181257_at): 0.3801
Fold Change (Gene F17C11.4, Affy_ID 180312_at): 0.2469
Fold Change (Gene F20A1.1, Affy_ID 172426_x_at): 0.4806
Fold Change (Gene F20D6.5, Affy_ID 182519_at): 0.1285
Fold Change (Gene F23B2.11, Affy_ID 191274_s_at): 0.3249
Fold Change (Gene F26A3.4, Affy_ID 191521_s_at): 0.273
Fold Change (Gene F26G1.7, Affy_ID 172882_x_at): 0.2384
Fold Change (Gene F28H7.3, Affy_ID 187996_s_at): 0.2413
Fold Change (Gene F32B6.6, Affy_ID 172854_x_at): 0.2584
Fold Change (Gene F32G8.6, Affy_ID 190591_at): 0.2447
Fold Change (Gene F36D3.9, Affy_ID 189469_at): 0.0313
Fold Change (Gene F36H12.7, Affy_ID 172857_x_at): 0.2238
Fold Change (Gene F37A8.4, Affy_ID 188068_at): 0.08741
Fold Change (Gene F38A3.1, Affy_ID 188281_s_at): 0.2113
Fold Change (Gene F38E9.1, Affy_ID 180768_at): 0.4693
Fold Change (Gene F38E11.2, Affy_ID 192323_at): 0.1638
Fold Change (Gene F43C11.7, Affy_ID 186263_at): 0.4148
Fold Change (Gene F44C8.3, Affy_ID 192777_at): 0.4925
Fold Change (Gene F44C8.8, Affy_ID 189999_at): 0.2454
Fold Change (Gene F44D12.5, Affy_ID 172333_x_at): 0.211
Fold Change (Gene F44D12.7, Affy_ID 172327_x_at): 0.152
Fold Change (Gene F45D11.15, Affy_ID 186801_s_at): 0.1969
Fold Change (Gene F45E4.8, Affy_ID 183438_s_at): 0.2476
Fold Change (Gene F47B10.2, Affy_ID 191301_s_at): 0.1971
Fold Change (Gene F48G7.10, Affy_ID 184636_at): 0.1582
Fold Change (Gene F49E12.10, Affy_ID 190009_at): 0.04402
Fold Change (Gene F53A9.6, Affy_ID 172363_x_at): 0.3136
Fold Change (Gene F53A9.8, Affy_ID 180612_s_at): 0.3321
Fold Change (Gene F53F4.13, Affy_ID 182491_at): 0.2444
Fold Change (Gene F55F3.2, Affy_ID 189534_at): 0.3483
Fold Change (Gene F55G1.3, Affy_ID 172702_x_at): 0.4912
Fold Change (Gene F58A4.7, Affy_ID 192781_s_at): 0.3315
Fold Change (Gene F58A6.8, Affy_ID 172889_x_at): 0.2177
Fold Change (Gene F58A6.9, Affy_ID 172743_x_at): 0.323
Fold Change (Gene F58B3.1, Affy_ID 178236_s_at): 0.331
Fold Change (Gene F59B2.5, Affy_ID 187071_at): 0.4503
Fold Change (Gene H02I12.6, Affy_ID 172891_x_at): 0.4283
Fold Change (Gene H12D21.1, Affy_ID 172431_x_at): 0.2562
Fold Change (Gene K02D7.1, Affy_ID 189003_s_at): 0.4538
Fold Change (Gene K03H6.2, Affy_ID 183309_at): 0.4008
Fold Change (Gene K05F1.2, Affy_ID 172815_x_at): 0.267
Fold Change (Gene K05F1.7, Affy_ID 172904_x_at): 0.2034
Fold Change (Gene K07E8.3, Affy_ID 180256_at): 0.02279
Fold Change (Gene K07F5.1, Affy_ID 172893_x_at): 0.2218
Fold Change (Gene K07F5.2, Affy_ID 172852_x_at): 0.2489
Fold Change (Gene K07F5.3, Affy_ID 172907_x_at): 0.2798
Fold Change (Gene K07F5.5, Affy_ID 172245_x_at): 0.3024
Fold Change (Gene K08F4.8, Affy_ID 172934_x_at): 0.2351
Fold Change (Gene K08H2.8, Affy_ID 192460_at): 0.4851
Fold Change (Gene M01D7.5, Affy_ID 173242_s_at): 0.2522
Fold Change (Gene M05D6.7, Affy_ID 193914_at): 0.2866
Fold Change (Gene M18.1, Affy_ID 173632_s_at): 0.2086
Fold Change (Gene M163.1, Affy_ID 177298_at): 0.4015
